Reference: the supplement of paper PMC11732987, “Enantioselective OTUD7B fragment discovery through chemoproteomics screening and high-throughput optimisation” (Communications Chemistry, 2025)
The list shows a part of the results. The data scatter; read single values as rough.

What follows are molecules tested on T1, NCOR2 C2436 (assay: log2 mean competition ratio of IA-DTB cysteine labelling (DMSO/compound) (log2 ratio); higher = stronger cysteine engagement by compound). Settings: 50 µM; treatment time: 4 h; cell line lysate: HEK293T.
T1 sequence (whole entry): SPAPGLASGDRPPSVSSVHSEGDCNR
Description: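 IA-DTB competitive cysteine chemoproteomics in HEK293T RIPA lysate. Lysates were treated with compound 29 or 30 at 50 or 200 µM for 4 h, then IA-DTB (500 µM, 1 h), trypsin-digested, NeutrAvidin-enriched and analysed by diaPASEF. Competition ratio = intensity DMSO / intensity compound (n=4 treated, n=64 DMSO); binding: mean log2 CR ≥ 1 and p ≤ 0.05 plus QC filters. Target is the cysteine site.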

| SMILES | log2 mean competition ratio |
| --- | --- |
| O=C(CCl)N[C@@H]1CCCc2ccccc21 | -0.0794 |
| O=C(CCl)N[C@H]1CCCc2ccccc21 | 0.0199 |

Same assay, conditions: 200 µM; treatment time: 4 h; cell line lysate: HEK293T

| SMILES | log2 mean competition ratio |
| --- | --- |
| O=C(CCl)N[C@@H]1CCCc2ccccc21 | 0.317 |
| O=C(CCl)N[C@H]1CCCc2ccccc21 | 0.145 |
